Source: article PMC11106511
No constants are given. Whether binding was seen depends on the method and setting. In cells and extracts the contact can be indirect. A yes stands for co-enrichment or nearness to the bait. Other partners may have been found.

Target: c-Myc (human (endogenous in SH-SY5Y and SK-N-BE(2))), P01106
Test: affinity purification with mass spectrometry; immunoprecipitation with c-Myc antibody from SH-SY5Y cell lysates, SDS-PAGE, Coomassie staining, mass spectrometry
Settings: remark: other sources report otherwise

- binding: binds
B1: lamin A (LMNA), P02545 1-646 (protein)
chain: METPSQRRATRSGAQASSTPLSPTRITRLQEKEDLQELNDRLAVYIDRVRSLETENAGLRLRITESEEVVSREVSGIKAAYEAELGDARKTLDSVAKERARLQLELSKVREEFKELKARNTKKEGDLIAAQARLKDLEALLNSKEAALSTALSEKRTLEGELHDLRGQVAKLEAALGEAKKQLQDEMLRRVDAENRLQTMKEELDFQKNIYSEELRETKRRHETRLVEIDNGKQREFESRLADALQELRAQHEDQVEQYKKELEKTYSAKLDNARQSAERNSNLVGAAHEELQQSRIRIDSLSAQLSQLQKQLAAKEAKLRDLEDSLARERDTSRRLLAEKEREMAEMRARMQQQLDEYQELLDIKLALDMEIHAYRKLLEGEEERLRLSPSPTSQRSRGRASSHSSQTQGGGSVTKKRKLESTESRSSFSQHARTSGRVAVEEVDEEGKFVRLRNKSNEDQSMGNWQIKRQNGDDPLLTYRFPPKFTLKAGQVVTIWAAGAGATHSPPTDLVWKAQNTWGCGNSLRTALINSTGEEVAMRKLVRSVTVVEDDEDEDGDDLLHHHHGSHCSSSGDPAEYNLRSRTVLCGTCGQPADKASASGSGAQVGGPISSGSSASSVTVTRSYRSVGGSGGGSFGDNLVTRSY
